Among the data in patent US7282347B2, “Method for extracting quantitative information relating to interactions between cellular components” (Fisher Bioimage APS, priority 2000, dated 2007) are binding values, retold here.

No constants are given. Whether binding was seen depends on the method and setting. Some binding calls cover weakened binding; strength is not graded here.

Experiment [1] deals with anchor probe HSPDE4A4-SosA (human). Briefly: redistribution trap in co-transfected CHO cells: rolipram-induced spots dissolved by 10 uM RP73401; imaging.
Experiment [2] has the same target. Nature of the experiment: redistribution trap in co-transfected CHO cells, 10 uM rolipram 20 hours; confocal imaging.
For experiment [3] the target is unchanged. Nature of the experiment: redistribution trap in co-transfected CHO cells: rolipram-induced GFP-bright spots, dispersed by RP73401; confocal imaging.
In experiment [4] the target is in frame protein fusion between PDE4A4 and human 14-3-3beta (human) (UniProt P31946). Briefly: redistribution trap in co-transfected CHO cells, rolipram, with and without extraction; imaging.
For experiment [5] the target is unchanged. Briefly: redistribution trap in co-transfected CHO cells, 10 uM rolipram, extraction buffer, fluorescence plate reader.

“detectable probe hGrb2-EGFP (from UniProt P62993 1-217; P42212 1-238)”: the binding entry in experiment [1], in experiment [2] and in experiment [3] was “binds” in each case.
Turning to “in frame protein fusion between EGFP and human BAD (from UniProt P42212 1-238; Q92934 1-168)”, the binding result in experiment [4] and in experiment [5] was “binds” in each case.
